Record: PubChem BioAssay AID743121 (NCATS, 2013)
Aim: 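Genes whose silencing strengthens cell killing by camptothecin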 (primary screen). System: MDA-MB-231 cells, a human breast cancer line. Knock-down reagent: single siRNA against human genes, 20 nM siRNA (0.8 pmol per well). Timing: 120 h (drug added 48 h after transfection, read 72 h later). Challenge: camptothecin 20 nM (about EC30) for 72 h; vehicle 0.1% DMSO in parallel plates. Measured: 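Cell viability by ATP luminescence (CellTiter-Glo) as % of non-targeting siRNA wells, and the log2 ratio of viability without drug over viability with camptothecin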. Scale: log2 vehicle/camptothecin viability: higher = stronger sensitisation to camptothecin. Call rule: 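Active genes have an RSA gene-level p-value below 0.001, computed from the ratios of their separate siRNAs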.
This is an unselected part of about 26,000 reagents. 167 of all reagents (0.63%) were called active. 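Calls are per gene from RSA p-values that are not deposited; an individual active-marked siRNA can sensitise only weakly.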 The numbers tell different reagents against one gene apart. Not all columns of the deposit are shown. Reagent sequences are not shown.

Knock-down of FCRL6 #1 came out at: log2 vehicle/camptothecin viability -0.269; inactive.
After knock-down of FCRL6 #2, the record shows log2 vehicle/camptothecin viability -0.542; inactive.
For FCRL6 #3, the values are log2 vehicle/camptothecin viability -0.0899; inactive.
For FCRL6 #4, the values are log2 vehicle/camptothecin viability -0.606; inactive.
After knock-down of GPR84 #1, the record shows log2 vehicle/camptothecin viability -0.247; inactive.
Against GPR84 #2 the deposit lists log2 vehicle/camptothecin viability -0.109; inactive.
Silencing of GPR84 #3 resulted in: log2 vehicle/camptothecin viability -0.256; inactive.
After knock-down of GPR84 #4, the screen gave log2 vehicle/camptothecin viability 0.0146; inactive.
Depletion of CHRM5 #1 resulted in: log2 vehicle/camptothecin viability 0.114; inactive.
After knock-down of CHRM5 #2, the record shows log2 vehicle/camptothecin viability 0.494; inactive.
With knock-down of CHRM5 #3, the record shows log2 vehicle/camptothecin viability 0.0227; inactive.
After knock-down of CHRM5 #4, the screen gave log2 vehicle/camptothecin viability 0.0275; inactive.
INCENP #1 scored log2 vehicle/camptothecin viability -0.492; inactive.
Against INCENP #2, the entry reads log2 vehicle/camptothecin viability -0.387; inactive.
Against INCENP #3, the entry reads log2 vehicle/camptothecin viability -0.904; inactive.
Against INCENP #4, the entry reads log2 vehicle/camptothecin viability -0.355; inactive.
Depletion of DKK1 #1 resulted in: log2 vehicle/camptothecin viability 0.23; inactive.
With knock-down of DKK1 #2, the record shows log2 vehicle/camptothecin viability 0.162; inactive.
With knock-down of DKK1 #3 the results were log2 vehicle/camptothecin viability -0.0513; inactive.
Against DKK1 #4 the deposit lists log2 vehicle/camptothecin viability -0.148; inactive.
Silencing of RAP2A #1 gave: log2 vehicle/camptothecin viability -0.246; inactive.
Silencing of RAP2A #2 came out at: log2 vehicle/camptothecin viability -0.428; inactive.
For RAP2A #3, the entry reads log2 vehicle/camptothecin viability -0.118; inactive.
Depletion of SMARCA4 #1 resulted in: log2 vehicle/camptothecin viability -0.0203; inactive.
With knock-down of SMARCA4 #2, the screen gave log2 vehicle/camptothecin viability 0.102; inactive.
SMARCA4 #3 showed log2 vehicle/camptothecin viability 0.197; inactive.
Against SMARCA4 #4 the deposit lists log2 vehicle/camptothecin viability 0.453; inactive.

Single entries from above.
Under “activity call”, FCRL6 #4 has inactive
Under “log2 vehicle/camptothecin viability”, DKK1 #2 is entered as 0.162
FCRL6 #2, activity call → inactive
